Measurements: PMC4344780

T1: Adipose triglyceride lipase (rat (endogenous in neonatal rat cardiomyocytes)) (UniProt P0C548)
T1 sequence: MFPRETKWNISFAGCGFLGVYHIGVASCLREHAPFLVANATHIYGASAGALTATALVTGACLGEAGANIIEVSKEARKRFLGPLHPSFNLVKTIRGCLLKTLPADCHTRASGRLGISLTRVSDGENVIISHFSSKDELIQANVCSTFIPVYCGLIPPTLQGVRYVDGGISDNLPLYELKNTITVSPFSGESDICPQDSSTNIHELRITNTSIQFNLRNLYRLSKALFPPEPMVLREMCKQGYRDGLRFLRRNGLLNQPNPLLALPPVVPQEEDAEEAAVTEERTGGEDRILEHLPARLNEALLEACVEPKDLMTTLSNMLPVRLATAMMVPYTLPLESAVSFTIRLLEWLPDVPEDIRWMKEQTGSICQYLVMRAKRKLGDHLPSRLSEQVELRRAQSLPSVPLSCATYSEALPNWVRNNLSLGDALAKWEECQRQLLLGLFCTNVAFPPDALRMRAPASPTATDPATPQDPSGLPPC


Legend:
[1] = target: T1, Adipose triglyceride lipase (rat (endogenous in neonatal rat cardiomyocytes)); experiment: co-IP; lysates of primary rat cardiomyocytes, pre-cleared with protein A/G-agarose; incubated overnight at 4°C with anti-PEDF or anti-ATGL antibody in Hepes 50 mM pH 7.4, NaCl 150 mM, 10% glycerol, Triton X-100 1%, Nonidet P-40 0.5%; protein A-Sepharose CL-4B 2 h at 4°C; blotted for the other protein
[2] = target: Pigment epithelium-derived factor (rat (endogenous in neonatal rat cardiomyocytes)); experiment: as above

| binding [1] | binding [2] | Molecule |
| --- | --- | --- |
| binds | – | Pigment epithelium-derived factor |
| – | binds | Adipose triglyceride lipase (enzyme, UniProt P0C548 1-478) MFPRETKWNISFAGCGFLGVYHIGVASCLREHAPFLVANATHIYGASAGALTATALVTGACLGEAGANIIEVSKEARKRFLGPLHPSFNLVKTIRGCLLKTLPADCHTRASGRLGISLTRVSDGENVIISHFSSKDELIQANVCSTFIPVYCGLIPPTLQGVRYVDGGISDNLPLYELKNTITVSPFSGESDICPQDSSTNIHELRITNTSIQFNLRNLYRLSKALFPPEPMVLREMCKQGYRDGLRFLRRNGLLNQPNPLLALPPVVPQEEDAEEAAVTEERTGGEDRILEHLPARLNEALLEACVEPKDLMTTLSNMLPVRLATAMMVPYTLPLESAVSFTIRLLEWLPDVPEDIRWMKEQTGSICQYLVMRAKRKLGDHLPSRLSEQVELRRAQSLPSVPLSCATYSEALPNWVRNNLSLGDALAKWEECQRQLLLGLFCTNVAFPPDALRMRAPASPTATDPATPQDPSGLPPC |

No constants are given. Whether binding was seen depends on the method and setting. Binding seen in cells or lysates may run through a third protein. Binding can be weak; no strength is given.
